Test results published in patent publication US20070232789A1.
No constants are given. Whether binding was seen depends on the method and setting. Binding can be weak; no strength is given.

The chains behind the UniProt entries cited, without tags or fusion partners. Where a name states a change or a piece, a line headed by the entry shows the natural chain unless it says otherwise.
UniProt Q07954: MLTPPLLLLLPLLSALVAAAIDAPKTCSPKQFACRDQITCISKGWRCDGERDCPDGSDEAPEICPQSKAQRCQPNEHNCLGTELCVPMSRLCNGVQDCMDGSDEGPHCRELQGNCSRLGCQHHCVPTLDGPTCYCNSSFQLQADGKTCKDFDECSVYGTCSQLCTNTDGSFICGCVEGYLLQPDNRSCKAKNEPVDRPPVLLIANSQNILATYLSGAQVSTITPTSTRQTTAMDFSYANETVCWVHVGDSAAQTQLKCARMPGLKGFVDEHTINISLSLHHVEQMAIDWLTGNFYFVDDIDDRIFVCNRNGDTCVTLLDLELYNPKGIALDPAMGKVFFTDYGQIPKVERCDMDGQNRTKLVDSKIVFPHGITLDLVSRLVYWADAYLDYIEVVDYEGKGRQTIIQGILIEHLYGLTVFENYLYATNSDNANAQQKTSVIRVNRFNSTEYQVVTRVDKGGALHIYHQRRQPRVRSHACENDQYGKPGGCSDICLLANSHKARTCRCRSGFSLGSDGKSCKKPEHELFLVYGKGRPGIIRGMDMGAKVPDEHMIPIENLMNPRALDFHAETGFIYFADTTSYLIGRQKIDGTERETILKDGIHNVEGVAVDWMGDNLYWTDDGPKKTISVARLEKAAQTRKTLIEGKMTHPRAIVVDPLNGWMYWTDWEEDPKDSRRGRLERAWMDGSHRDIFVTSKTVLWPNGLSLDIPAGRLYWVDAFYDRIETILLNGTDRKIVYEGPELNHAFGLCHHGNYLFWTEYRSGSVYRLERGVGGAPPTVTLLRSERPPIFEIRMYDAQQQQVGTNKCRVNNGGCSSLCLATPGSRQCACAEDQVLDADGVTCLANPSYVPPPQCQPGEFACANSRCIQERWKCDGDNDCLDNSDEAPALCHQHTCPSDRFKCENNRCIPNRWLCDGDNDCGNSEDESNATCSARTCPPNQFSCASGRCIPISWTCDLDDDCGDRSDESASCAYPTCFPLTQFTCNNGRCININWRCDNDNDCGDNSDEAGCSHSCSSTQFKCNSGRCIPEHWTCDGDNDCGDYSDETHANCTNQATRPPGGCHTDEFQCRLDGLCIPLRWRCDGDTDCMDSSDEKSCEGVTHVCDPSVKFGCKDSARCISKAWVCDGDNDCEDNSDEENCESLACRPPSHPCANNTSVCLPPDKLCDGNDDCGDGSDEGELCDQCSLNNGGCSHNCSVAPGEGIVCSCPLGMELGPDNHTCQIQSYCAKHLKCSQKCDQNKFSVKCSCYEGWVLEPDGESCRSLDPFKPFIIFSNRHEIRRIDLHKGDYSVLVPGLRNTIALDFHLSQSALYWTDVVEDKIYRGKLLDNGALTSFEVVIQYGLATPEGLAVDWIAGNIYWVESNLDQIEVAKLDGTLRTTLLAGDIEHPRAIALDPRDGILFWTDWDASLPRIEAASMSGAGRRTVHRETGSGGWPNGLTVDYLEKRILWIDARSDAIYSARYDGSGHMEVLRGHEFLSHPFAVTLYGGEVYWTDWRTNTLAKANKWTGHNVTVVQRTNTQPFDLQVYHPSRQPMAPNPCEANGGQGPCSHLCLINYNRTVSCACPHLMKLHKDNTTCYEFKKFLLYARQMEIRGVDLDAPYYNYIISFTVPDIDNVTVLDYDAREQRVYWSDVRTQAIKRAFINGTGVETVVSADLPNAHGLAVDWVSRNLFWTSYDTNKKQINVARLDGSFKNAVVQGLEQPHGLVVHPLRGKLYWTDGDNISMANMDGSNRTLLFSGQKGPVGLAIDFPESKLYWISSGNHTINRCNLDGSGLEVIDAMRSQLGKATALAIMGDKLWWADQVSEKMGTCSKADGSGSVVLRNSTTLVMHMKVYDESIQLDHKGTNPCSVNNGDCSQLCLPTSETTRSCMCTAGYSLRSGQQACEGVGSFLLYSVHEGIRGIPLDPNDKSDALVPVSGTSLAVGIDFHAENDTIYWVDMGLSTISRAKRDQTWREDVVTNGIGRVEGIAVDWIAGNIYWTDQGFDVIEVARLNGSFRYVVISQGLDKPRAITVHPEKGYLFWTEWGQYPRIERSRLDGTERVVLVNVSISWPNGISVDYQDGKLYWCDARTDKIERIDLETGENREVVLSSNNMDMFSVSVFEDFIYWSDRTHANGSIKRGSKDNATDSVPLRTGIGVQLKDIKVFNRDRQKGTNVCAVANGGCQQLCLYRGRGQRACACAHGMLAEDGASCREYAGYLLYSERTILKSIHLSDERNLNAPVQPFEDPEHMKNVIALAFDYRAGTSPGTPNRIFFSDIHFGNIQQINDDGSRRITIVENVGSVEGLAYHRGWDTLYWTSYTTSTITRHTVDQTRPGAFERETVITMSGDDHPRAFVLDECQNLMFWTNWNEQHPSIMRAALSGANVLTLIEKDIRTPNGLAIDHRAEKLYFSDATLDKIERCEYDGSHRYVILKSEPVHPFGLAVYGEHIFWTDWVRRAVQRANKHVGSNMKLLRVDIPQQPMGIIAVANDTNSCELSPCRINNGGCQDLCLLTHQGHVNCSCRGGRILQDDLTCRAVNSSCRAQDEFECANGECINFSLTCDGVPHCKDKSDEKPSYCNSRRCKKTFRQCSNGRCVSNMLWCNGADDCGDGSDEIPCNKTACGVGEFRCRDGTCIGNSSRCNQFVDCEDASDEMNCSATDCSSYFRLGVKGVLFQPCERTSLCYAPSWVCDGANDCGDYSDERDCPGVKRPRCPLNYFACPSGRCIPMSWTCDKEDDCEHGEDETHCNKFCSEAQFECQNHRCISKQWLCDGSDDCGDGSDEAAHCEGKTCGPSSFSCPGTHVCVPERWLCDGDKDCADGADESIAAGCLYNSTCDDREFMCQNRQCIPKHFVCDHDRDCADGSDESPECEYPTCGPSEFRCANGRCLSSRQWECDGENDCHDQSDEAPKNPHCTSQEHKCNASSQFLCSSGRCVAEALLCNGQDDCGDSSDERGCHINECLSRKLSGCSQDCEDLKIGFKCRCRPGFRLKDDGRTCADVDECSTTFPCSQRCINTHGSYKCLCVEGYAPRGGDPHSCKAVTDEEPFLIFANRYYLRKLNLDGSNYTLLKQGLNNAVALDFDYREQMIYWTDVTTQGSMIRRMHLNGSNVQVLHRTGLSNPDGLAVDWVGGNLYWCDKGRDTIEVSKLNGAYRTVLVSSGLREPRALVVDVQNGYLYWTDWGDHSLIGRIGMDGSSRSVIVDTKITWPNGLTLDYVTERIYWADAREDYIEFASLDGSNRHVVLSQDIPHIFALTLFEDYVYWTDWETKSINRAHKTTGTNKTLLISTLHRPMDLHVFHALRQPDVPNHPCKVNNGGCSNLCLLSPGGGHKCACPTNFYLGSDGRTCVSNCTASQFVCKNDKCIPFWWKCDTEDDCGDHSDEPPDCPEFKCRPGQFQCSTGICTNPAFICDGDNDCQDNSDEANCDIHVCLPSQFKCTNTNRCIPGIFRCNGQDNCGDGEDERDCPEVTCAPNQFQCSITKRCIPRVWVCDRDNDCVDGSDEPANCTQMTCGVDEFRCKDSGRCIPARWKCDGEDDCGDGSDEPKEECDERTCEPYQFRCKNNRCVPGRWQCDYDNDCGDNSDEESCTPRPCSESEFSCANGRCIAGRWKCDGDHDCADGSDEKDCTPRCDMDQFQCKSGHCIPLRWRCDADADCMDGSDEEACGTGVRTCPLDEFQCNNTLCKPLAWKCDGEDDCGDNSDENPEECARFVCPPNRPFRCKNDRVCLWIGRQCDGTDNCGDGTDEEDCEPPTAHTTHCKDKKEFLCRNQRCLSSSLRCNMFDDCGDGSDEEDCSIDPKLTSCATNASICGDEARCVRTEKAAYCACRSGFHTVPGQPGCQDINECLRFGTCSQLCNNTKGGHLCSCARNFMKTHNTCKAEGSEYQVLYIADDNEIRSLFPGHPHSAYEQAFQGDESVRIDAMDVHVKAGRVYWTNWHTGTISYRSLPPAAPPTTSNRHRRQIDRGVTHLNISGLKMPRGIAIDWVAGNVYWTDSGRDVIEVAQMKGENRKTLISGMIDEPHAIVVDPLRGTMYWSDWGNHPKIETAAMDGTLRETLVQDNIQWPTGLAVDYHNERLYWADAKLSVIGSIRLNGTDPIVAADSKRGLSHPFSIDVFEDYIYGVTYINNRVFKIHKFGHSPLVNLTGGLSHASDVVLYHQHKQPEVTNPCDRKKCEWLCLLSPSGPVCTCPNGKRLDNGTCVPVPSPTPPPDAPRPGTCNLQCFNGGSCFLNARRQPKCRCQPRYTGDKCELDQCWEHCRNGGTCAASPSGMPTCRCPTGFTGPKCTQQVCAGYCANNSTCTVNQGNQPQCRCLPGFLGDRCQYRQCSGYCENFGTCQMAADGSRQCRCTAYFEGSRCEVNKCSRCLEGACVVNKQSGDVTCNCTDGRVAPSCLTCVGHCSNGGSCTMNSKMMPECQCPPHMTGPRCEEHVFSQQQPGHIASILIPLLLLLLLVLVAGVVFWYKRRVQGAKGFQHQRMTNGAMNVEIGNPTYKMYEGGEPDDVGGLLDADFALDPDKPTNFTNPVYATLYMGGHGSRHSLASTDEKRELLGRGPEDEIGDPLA

Biological target: low-density lipoprotein receptor-related protein (LRP), purified (human) (UniProt Q07954)
Test: competition: peptide 484-509 varied, competitor 125I-fVIII, LRP-coated microtiter wells

B1: synthetic A2 domain peptide 484-509 (peptide)
peptide: RPLYSRRLPKGVKHLKDFPILPGEIF
binding: binds
